# Data as given in PubChem BioAssay AID602196 (INSERM, 2012)
# Assay: 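Genes whose knock-down alters cisplatin killing of lung cancer cells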
# System: human A549 lung cancer cells
# Reagents: siRNA pair against human genes
# Duration: 48 h transfection before cisplatin; time from cisplatin to read-out not stated
# Treatment: cisplatin at a dose killing half of control-siRNA cells; exact dose and duration not given
# Detection: 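Shift in cisplatin death relative to control siRNA, from -50 (all cells die) to +50 (no cells die); siRNAs harmful on their own scored 0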
# Direction: two-siRNA summed score (-2 to +2): higher = both siRNAs protect from cisplatin killing; -2 means both sensitise; mean protection from cisplatin (shift in death) and protection from cisplatin (shift in death), siRNA C and protection from cisplatin (shift in death), siRNA D: higher = protection from cisplatin killing
# Rule for the call: 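Each siRNA scores 0 if harmful alone by LDH or WST-1, otherwise +1 if it reduces and -1 if it increases cisplatin killing; a gene is active when both siRNAs agree (sum +2 or -2)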
# Meaning of the calls: active = both siRNAs shift cisplatin killing the same way; inactive = no consistent shift, or siRNA harmful alone
# Shown is a random part of about 23,000 reagents. 455 of all reagents (2%) were called active. 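Active includes both protection and sensitisation; some change values fall well beyond the stated -50 to +50 range.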 Not stated in the record: the amount of reagent.
target gene,two-siRNA summed score (-2 to +2),mean protection from cisplatin (shift in death) (%),"protection from cisplatin (shift in death), siRNA C (%)","protection from cisplatin (shift in death), siRNA D (%)",activity call
LOC442595,0,10,17.6,2.4,inactive
ETV5,0,-2.4,0.4,-5.3,inactive
LOC441153,1,22.3,20.9,23.7,inactive
EP300,0,-11.7,-11,-12.4,inactive
VWF,0,9.1,-7.4,25.6,inactive
TOR4A,-1,-13.6,-26.6,-0.7,inactive
OR4D6,1,13.1,9.2,16.9,inactive
LMOD3,0,0.6,-0.3,1.4,inactive
DNM1P28,2,18.7,7.9,29.5,active
ZNF454,0,3.5,4.6,2.5,inactive
NUDT4,0,-0.8,2.5,-4.2,inactive
OTOR,0,6.2,1.2,11.2,inactive
KIF21A,0,12,13.8,10.1,inactive
ESPN,0,5.1,7.9,2.3,inactive
SEPTIN9,0,-2,-6.4,2.4,inactive
SOWAHA,1,16.9,21.1,12.7,inactive
GCG,0,-6.1,-4.8,-7.3,inactive
SRGN,0,22.3,-0.4,44.9,inactive
HEATR9,-1,-9.6,-24.1,4.8,inactive

Ordered by “protection from cisplatin (shift in death), siRNA C (%)” (highest first): some entries from above
target gene,two-siRNA summed score (-2 to +2),mean protection from cisplatin (shift in death) (%),"protection from cisplatin (shift in death), siRNA C (%)","protection from cisplatin (shift in death), siRNA D (%)",activity call
DNM1P28,2,18.7,7.9,29.5,active
ZNF454,0,3.5,4.6,2.5,inactive
NUDT4,0,-0.8,2.5,-4.2,inactive

The results go on:
target gene,two-siRNA summed score (-2 to +2),mean protection from cisplatin (shift in death) (%),"protection from cisplatin (shift in death), siRNA C (%)","protection from cisplatin (shift in death), siRNA D (%)",activity call
PMCHL2,0,2.7,1.4,4,inactive
HYAL1,0,-1.4,4.2,-6.9,inactive
PENK,0,7,6.4,7.7,inactive
LOC440250,0,-3.6,7.3,-14.5,inactive
OR10P1,1,14.3,7.5,21.2,inactive
ROM1,1,15.1,21.2,9,inactive
KLHL27,0,10.5,15.7,5.3,inactive
GPHN,-1,-12.4,-18.7,-6.2,inactive
AK1,1,8.6,21,-3.7,inactive
STOML3,-1,-9.4,-17.6,-1.1,inactive
SLC25A45,0,3.3,13.9,-7.3,inactive
REXO1L1P,0,4.5,6.6,2.3,inactive
PCDHGB4,0,-1.8,3,-6.6,inactive
LILRB5,0,1.6,9.4,-6.3,inactive
NECAP2,-1,-8.1,-32.4,16.2,inactive
ZNF675,-1,-11.2,1.3,-23.8,inactive
FASTKD5,0,4.9,10.4,-0.6,inactive
PARD3B,2,19.7,20.3,19.2,active
F8A1,0,-4.4,-2.4,-6.3,inactive
GPC1,0,-13.6,-15.7,-11.5,inactive
LOC389308,0,10.1,16.8,3.5,inactive
FRYL,0,12.1,3.7,20.5,inactive
EIF1B,1,15.6,10.1,21.2,inactive
GLT8D1,0,4.1,-13.5,21.8,inactive
ACYP2,0,5.2,5.7,4.7,inactive
MAEL,0,7.3,2.2,12.5,inactive
LTBP1,0,8.3,1.7,15,inactive
LINC02210,0,3.4,9.9,-3.2,inactive
DCTPP1,-1,-3.6,-12.9,5.8,inactive
GAST,0,1.2,-6.6,9,inactive
FAM222A,0,1.1,5.5,-3.4,inactive
PNP,0,-1.9,-2.3,-1.5,inactive
TMEM176A,-1,-8.7,-14.4,-3,inactive
LOC401620,0,-2.4,6.6,-11.4,inactive
NPPA,1,5.9,17.8,-5.9,inactive
TSPAN3,0,5.4,4.5,6.4,inactive
CCDC59,1,8.5,0.4,16.5,inactive
NUSAP1,0,2.4,-2.8,7.7,inactive
